Test results reported in patent US20130108658A1 (published 2013).
No constants are given. Whether binding was seen depends on the method and setting. Some entries that bind do so weakly or less than the wild type.

Sequences of proteins named here, by UniProt entry; tags and fusion partners are left off. A change or cut given only in a name is not applied to a line headed by its entry.
UniProt P06756: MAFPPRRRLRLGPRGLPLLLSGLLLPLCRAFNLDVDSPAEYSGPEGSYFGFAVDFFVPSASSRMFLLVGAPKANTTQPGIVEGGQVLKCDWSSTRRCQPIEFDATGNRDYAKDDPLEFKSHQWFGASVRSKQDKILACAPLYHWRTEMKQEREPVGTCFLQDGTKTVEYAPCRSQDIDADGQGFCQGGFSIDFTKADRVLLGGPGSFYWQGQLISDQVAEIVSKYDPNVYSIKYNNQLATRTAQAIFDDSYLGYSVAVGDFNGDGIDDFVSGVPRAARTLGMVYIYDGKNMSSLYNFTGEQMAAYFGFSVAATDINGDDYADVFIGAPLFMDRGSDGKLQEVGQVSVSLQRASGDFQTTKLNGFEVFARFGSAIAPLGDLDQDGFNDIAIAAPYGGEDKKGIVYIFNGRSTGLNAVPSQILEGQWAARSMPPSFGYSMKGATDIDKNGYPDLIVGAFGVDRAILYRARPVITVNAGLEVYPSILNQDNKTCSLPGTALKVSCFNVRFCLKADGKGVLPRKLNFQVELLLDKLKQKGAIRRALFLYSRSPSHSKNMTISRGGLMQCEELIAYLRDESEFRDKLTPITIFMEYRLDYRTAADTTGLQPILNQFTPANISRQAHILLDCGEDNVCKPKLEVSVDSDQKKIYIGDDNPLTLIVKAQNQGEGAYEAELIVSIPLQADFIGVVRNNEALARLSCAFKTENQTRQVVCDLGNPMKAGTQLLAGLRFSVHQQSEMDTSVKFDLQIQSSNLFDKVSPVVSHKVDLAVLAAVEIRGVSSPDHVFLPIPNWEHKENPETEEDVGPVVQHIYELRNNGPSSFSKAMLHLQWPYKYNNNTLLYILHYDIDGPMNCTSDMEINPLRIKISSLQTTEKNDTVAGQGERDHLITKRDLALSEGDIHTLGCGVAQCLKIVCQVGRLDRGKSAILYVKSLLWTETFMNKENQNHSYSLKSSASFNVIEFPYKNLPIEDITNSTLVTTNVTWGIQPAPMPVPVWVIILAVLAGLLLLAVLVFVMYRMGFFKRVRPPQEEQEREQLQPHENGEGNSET

Target: purified αvβ3 integrin (CHEMICON) (UniProt P06756)
Assay: A20-capture ELISA, purified αvβ3 integrin 100 ng/well, normalised to A20-biot

| Substance | binding |
| --- | --- |
| AAV2 RGD4C 587 (from UniProt P03135 1-587; P03135 588-735) | binds |
| AAV2 RGD4C 453 (from UniProt P03135 1-453; P03135 454-735) | binds |
| AAV2 RGD4C 587 A2 (from UniProt P03135 1-587; P03135 588-735) | binds |
| AAV2 RGD4C 453 A2 (from UniProt P03135 1-453; P03135 454-735) | binds |
